In PMC12040169 (PLOS Biology, 2025):
Some of the results follow.

What follows are molecules tested on T1, CTL2-GFP (C. trachomatis L2/434/Bu, GFP-expressing). Conditions: bulk GFP, single well; 28.5 h, 10 µM; inhibitor.
T1 construct: L2/434/Bu, GFP-expressing
Set-up: species or system HeLa; Intracellular C. trachomatis growth in HeLa cells, bulk GFP fluorescence relative to DMSO

SMILES	% of control remaining
COC(=O)c1sc(NC(=S)Nc2ccn(C)n2)c(C(=O)OC)c1C [CBK267078]	186.71%
CCOc1ccc(NC(=O)C(C)Sc2nc3ccc(F)cc3[nH]2)cc1 (stereo not drawn) [CBK266047]	98.7094%
COc1ccc2c(c1)CC(=O)NC21CCN(Cc2c(F)cccc2F)CC1 [CBK039835]	106.205%
O=C(O)CCC(C(=O)O)N1C(=O)c2cc(Cl)c(Cl)cc2C1=O (stereo not drawn) [CBK264156]	118.886%
C[C@H]1[C@@H]2[C@@H](O)C([C@H](C)C(=O)N3CCCC3)CC[C@@]2(C)CC[C@@H]1NC(=O)c1ccccc1 (stereo partly drawn) [CBK289441]	123.116%
Cc1cc2cccc(NC(=O)NCc3cncn3CC(C)C)c2o1 [CBK306715]	125.687%
Cc1nc(C2CCN(C(=O)CC3CCCC3)CC2)ncc1C(=O)Nc1ccc(Cl)cc1 [CBK285847]	115.119%
CC(=O)Nc1nc2c3ccccc3n(C(C)=O)c2s1 [CBK011360]	100.086%
O=C(/C=C/c1ccc2c(c1)OCO2)NCCSc1ccccn1 [CBK264012]	123.738%
Cc1nonc1-c1csc(CC(C)n2cc(Cl)cn2)n1 (stereo not drawn) [CBK304704]	140.948%
N#CC1CCC(CNC(=O)c2sc3ccccc3c2Cl)CC1 (stereo not drawn) [CBK010864]	113.643%
c1ccc(CCNc2cc(-c3ccsc3)ncn2)nc1 [CBK036963]	177.39%
O=C1CCC(=O)N1CCOc1nccnc1OC1CCN(CCOc2ccccc2)CC1 [CBK084354]	96.6958%
Cc1cnc(CNC(=O)N2CCN(CCN3CCOCC3)CC2)cn1 [CBK155673]	101.127%
CC(C)SCC(=O)Nc1ccc(Br)cc1 [CBK057618]	101.591%
CC(C)[C@H]1CN(Cc2ccco2)CCN1C(=O)c1cscn1 [CBK285490]	134.784%
O=C(N[C@H]1CCN2C(=O)c3cc(-c4cccs4)ccc3NC(=O)[C@H]12)c1cnccn1 [CBK289337]	84.137%
O=C(Nc1nnc(-c2ccc3c(c2)OCCO3)o1)c1cccc(F)c1 [CBK287402]	167.756%
CC(C)(C)OC(=O)Nc1ccc2c(ccn2CCN2CCOCC2)c1 [CBK161767]	89.2403%
CC1=NN(c2nc(-c3cccc([N+](=O)[O-])c3)cs2)C(=O)C1/N=N/c1ccc(C)c(Br)c1 (stereo not drawn) [CBK262430]	100%
O=C(O)CCSc1nc(-c2ccccc2)cc(=O)[nH]1 [CBK287076]	104.868%
CCn1cc(CN(CCN(C)C)Cc2cccs2)c(C)n1 [CBK283037]	115.917%
CC(C)C(=O)N1CCCC1c1cc2n(n1)[C@@H](C(F)(F)F)C[C@@H](C)N2 (stereo partly drawn) [CBK282966]	97.2655%
Cc1cc2ncc3c(n2n1)CC1CCC3N1C(=O)c1cccs1 (stereo not drawn) [CBK284415]	152.859%
O=C(c1cccc(F)c1)N1CCN(Cc2ccccn2)CC1 [CBK263023]	115.353%
O=C(c1ccc2nc[nH]c2c1)N1Cc2ccccc2C1 [CBK200322]	104.819%

As entered above:
c1ccc(CCNc2cc(-c3ccsc3)ncn2)nc1 [CBK036963] – % of control remaining: 177.39%
Cc1nonc1-c1csc(CC(C)n2cc(Cl)cn2)n1 (stereo not drawn) [CBK304704] – % of control remaining: 140.948%

Remaining list, next part

SMILES	% of control remaining
O=C1N=C(NC2CCCCC2)SC1Cc1nc2ccccc2o1 (stereo not drawn) [CBK067970]	121.252%
CCOc1ccc(S(=O)(=O)Nc2ccc(C(=O)O)cc2)cc1 [CBK287171]	127.838%
O=C(c1c(F)cccc1F)N1CCN(c2ncccn2)CC1 [CBK144517]	105.402%
O=C(O)C1CCCN1S(=O)(=O)c1ccc2[nH]c(=O)c(=O)[nH]c2c1 (stereo not drawn) [CBK266971]	166.806%
Cn1c(/C=C/C=C/CN2CCN(Cc3ccccc3)CC2)nc2ccc([N+](=O)[O-])cc21 [CBK268281]	122.268%
COc1ccc(C(=O)Nc2cc(C)nn2-c2nc3ccccc3s2)cc1 [CBK287841]	127.087%
Cc1ccc2nc(N3CCCC(O)C3)c(CN3CCN(C)CC3)cc2c1 (stereo not drawn) [CBK307710]	87.1928%
CCCNc1nccnc1-c1cccc(Cl)c1Cl [CBK088892]	173.229%
COC(=O)c1ccc2c(=O)n(CC3CCCO3)c(SC)nc2c1 (stereo not drawn) [CBK304535]	89.673%
COc1ccc(C2CCCC(N(CCN(C)C)C(=O)Nc3ccc(F)c(F)c3)C2)cc1OC (stereo not drawn) [CBK059339C]	114.267%
CCNc1nc(Sc2ccc(Cl)cc2)cc(C(F)(F)F)n1 [CBK003349]	115.42%
O=C1N=C(NC2CCCCCC2)S[C@@H]1CC1CCCCC1 [CBK070723]	104.877%
Cc1ccc(CN(Cc2nccn2C)C2CC(C)(C)NC(C)(C)C2)o1 [CBK283190]	84.1197%
O=C(Nc1cc2cccnc2nc1Cl)c1ccc(C(F)(F)F)cc1[N+](=O)[O-] [CBK091348]	114.192%
Cc1c(C(=O)N2CCN(C3CC3)CC2)nnn1Cc1ccc(F)cc1F [CBK305507]	123.351%
O=C(O)C1C2CCC(O2)C1C(=O)Nc1cnn(Cc2ccccc2)c1 (stereo not drawn) [CBK286849]	103.204%
CC(C)(C)c1ccc(-c2cnc(N)c(-c3ccc(C(=O)N4CCOCC4)cc3)n2)cc1 [CBK084543A]	71.4546%
CC(C)N1CCC2(C/C=C/CNC(=O)c3ccccc3OCCNC2=O)CC1 [CBK292094]	141.6%
OCCN1CCN(C(c2cccs2)c2ccc3cccnc3c2O)CC1 (stereo not drawn) [CBK296964]	79.191%
O=C(O)CCc1nc(-c2ccc3[nH]ccc3c2)no1 [CBK287070]	101.097%
CN1C(=O)c2ccccc2C(=O)[C@@]2(C)CN(C(=O)C3CCCC3)C[C@@H]12 [CBK284570]	155.501%
CCOC(=O)c1c(NC(=O)C2CCCCC2C(=O)O)sc(C)c1C (stereo not drawn) [CBK265469]	129.489%
O=C(O)c1cccc(C(=O)Nc2cccc(NC(=O)C3CCCO3)c2)c1 (stereo not drawn) [CBK268566]	130.218%
CCOC(=O)C1CCCN(Cc2ccc3c(c2)OCO3)C1 (stereo not drawn) [CBK074569]	102.583%
CC(=O)NCc1ccc(-c2ccc(C(=O)NC3(c4ccccc4)CCCC3)c(C)n2)cc1 [CBK285891]	108.226%
Clc1ccccc1C1N(Cc2ccccc2)CCN1Cc1ccccc1 [CBK261217]	112.185%

SMILES	% of control remaining
O=C(CCS(=O)(=O)c1ccccc1)Nc1c(F)cc(F)cc1OC1CCNCC1 [CBK050226T]	128.676%
COc1ccccc1NCc1c(O)c(Br)cc2oc3c(c12)CCCC3 [CBK160398]	55.2808%
FC(F)(F)CCN1CCC2(CC1)NCCc1c2[nH]c2ccc(Cl)cc12 [CBK039331]	38.4919%
Sc1nnc(COc2ccccc2)n1/N=C/c1cccnc1 [CBK265308]	128.502%
C=CCNC(=O)N[C@H]1[C@H](O)[C@@H](N2CCCC2)[C@@H]2OC[C@H]1O2 [CBK288829]	110.607%
CCCCC(=O)N(C)c1c(CC)nc2c(OCc3ccc(C#N)cc3)cccn12 [CBK147779]	121.76%
COc1ccc(N2CCN(CC(O)c3c[nH]c4cc(OC)ccc34)CC2)cc1 (stereo not drawn) [CBK286355]	110.837%
O=S(=O)(Oc1ccccc1)c1ccc2c(c1)Cc1cc(S(=O)(=O)Oc3ccccc3)ccc1-2 [CBK231928]	103.826%
CCC(CC)Oc1ccc(C2(C)NC(=O)NC2=O)cc1 (stereo not drawn) [CBK288409]	112.588%
CC1CCC(C(N)=O)CN1C(=O)c1csc(Br)c1 (stereo not drawn) [CBK305812]	155.116%
O=C1c2ccccc2S(=O)(=O)N1CC(O)Cn1ccc2ccccc21 (stereo not drawn) [CBK267905]	106.869%
COc1ccc2[nH]cc(CC(=O)N3CCCC4(CCN(C(=O)c5ccc(OC)c(OC)c5)C4)C3)c2c1 (stereo not drawn) [CBK131666]	120.64%
O=C(CSc1ccc(Cl)cc1)Nc1ccc(CN2CCOCC2)cc1 [CBK305855]	157.295%
O=C(NCCc1ccccc1)c1cc(-c2ccccc2Cl)[nH]n1 [CBK288113]	132.752%
Cc1ccc2nc(C)cc(C(=O)NNC(=O)Nc3ccc([N+](=O)[O-])cc3)c2c1 [CBK266890]	108.244%
Cc1cc(CC(=O)NCc2c(-c3ccccc3)noc2C)on1 [CBK144090]	123.601%
Cc1ccc(OCC(=O)Nc2ccccc2N2CCN(S(C)(=O)=O)CC2)cc1 [CBK268722]	94.6419%
CS(=O)(=O)c1ccc(-c2cccc(COC3CCN(C(=O)Cc4ccc(F)cc4F)CC3)c2)cc1 [CBK149506]	90.4612%
COc1ccccc1C1=NN(C(=O)CCCC(=O)O)C(c2ccco2)C1 (stereo not drawn) [CBK266642]	121.019%
Cn1cc(-c2cncn2CCCOc2ccc(Cl)cc2)cn1 [CBK281784]	175.905%
O=C(/C=C/c1ccco1)Nc1cc2ccccc2cc1NC(=O)/C=C/c1ccco1 [CBK261474]	120.032%
Nc1ccc(-c2cn3ccnc3c(NCc3cccs3)n2)cc1 [CBK066564]	199.099%
O=C1C(n2c(=O)[nH]c3ccccc3c2=O)CCN1CC(F)(F)F (stereo not drawn) [CBK305264]	79.3091%
O=C(O)c1ccccc1NS(=O)(=O)c1cccc2cccnc12 [CBK042358]	146.557%
CC(NC(=O)c1c2c(nn1C)CCCC2)c1ccccn1 (stereo not drawn) [CBK281888]	132.595%
COCCN(Cc1nnc(-c2cccs2)o1)C(C(=O)N1CCOCC1)c1ccccc1 (stereo not drawn) [CBK295190]	148.641%

Among those listed so far, four contain bromine.
SMILES	% of control remaining
CC(C)SCC(=O)Nc1ccc(Br)cc1 [CBK057618]	101.591%
CC1=NN(c2nc(-c3cccc([N+](=O)[O-])c3)cs2)C(=O)C1/N=N/c1ccc(C)c(Br)c1 (stereo not drawn) [CBK262430]	100%
COc1ccccc1NCc1c(O)c(Br)cc2oc3c(c12)CCCC3 [CBK160398]	55.2808%
CC1CCC(C(N)=O)CN1C(=O)c1csc(Br)c1 (stereo not drawn) [CBK305812]	155.116%
